From ChEMBL document CHEMBL3988442, “University of Dundee, Small-Polar-MMV Screening Library” (2021).

A: 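Whole-cell growth test on Mycobacterium tuberculosis, read after 4 days in a medium based on cholesterol and the lipid DPPC; the read-out is not stated. Tested at 50 µM. Higher reads as more growth inhibition (inferred: compounds with an IC50 in retests scored well above the rest). Of about 69,000 compounds tested this way, about 370 (0.54%) reached 50% or more in at least one test.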
B: 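Whole-cell growth test on Mycobacterium tuberculosis, read after 3 days in glucose-containing 7H9 medium; the read-out is not stated. Concentration: 50 µM. Direction is inferred from retests: higher values go with more growth inhibition. Size under these conditions: about 69,000 compounds, about 760 of them at 50% or above in at least one test.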

The filed quantity is “Percent Effect” (%). The record does not define 0% and 100%; most values in the screen are far below 50% and negative numbers occur (in some assays of this library far below -100). The compounds are a random part of those screened. Two or more numbers in one place are separate tests of the same structure; such repeats can differ widely.

structure: CNc1cc(C2CN(C(=O)c3ccccc3)CCO2)nc(C)n1 (centres undefined)
A: -14.85%
B: 16.68%

structure: Cc1ccc(C(=O)O)cc1CNC(=O)CN1CC(C)(C)[C@@](C)(O)C1
A: 1.381%
B: -5.519%

structure: Clc1ccc(-n2cnnc2CCCN2CCOCC2)cc1
A: -14.95%
B: 14.25%

structure: O=C(O)C(F)(F)F.O=C(O)C(F)(F)F.c1ccc(OCc2nnc3n2CCN(CC2CCOCC2)C3)nc1
A: -19.04%
B: -34.8%

structure: CCC(C)NC(=O)c1ccc(CNC(=O)CC(C)(C)C)cc1 (centres undefined)
A: -12.12% and -11.61%
B: -27.26%

structure: CN1CCN(C(=O)c2cccc(CN3CCOCC3)c2)CC1
A: 12.54%
B: 30.94%

structure: COCc1ncn2c1CN(C(=O)c1ccc[nH]1)CC2
A: 6.388%
B: 19.53%

structure: O=S1(=O)COCCN1Cc1ccc(F)c(F)c1
A: 13.54%
B: 4.223%

structure: CS(=O)(=O)NCCC1CCCCN1C(=O)NCCc1ccccn1 (centres undefined)
A: 15.2%
B: -4.934% and 2.276%

structure: COCCCOc1ccc(C(=O)N(C)Cc2cccc(O)c2)cn1
A: 7.02% and 16.03%
B: 6.866%

structure: CC(C)CNC(=O)CSc1nnc(OC(C)C)s1
A: 17.74%
B: 7.686%

structure: CCN(CC)S(=O)(=O)N1CCC(c2nccn2Cc2ccccn2)CC1
A: 29.82%
B: -11.5%

structure: Cc1ccc(N2CCC(c3[nH]ncc3Cc3ccccc3)CC2)nn1
A: -5.171% and 18.41%
B: 23.96%

structure: CC(CO)N1CCN(C(=O)OC(C)(C)C)CC1 (centres undefined)
A: -12.4%
B: -2.459% and 6.625%

structure: [H][C@]12CC[C@@]3(N=C(CC)NC3=O)[C@@]1([H])CN(C(=O)NCc1cccc(F)c1)C2
A: -11.98%
B: 10.35%

structure: COc1cccnc1NC(=O)COC1CCCC1
A: -18.85%
B: 16.76% and -37.07%

structure: COc1ccc(C(=O)N2CCN(C(=O)CCCc3cn[nH]c3)CC2)cc1
A: -8.409%
B: -37.73% and 6.244%

structure: CCOCC1CN(CCN(C)C)Cc2cnn(CC3CCCC3)c21.O=C(O)C(F)(F)F.O=C(O)C(F)(F)F (centres undefined)
A: 19.19%
B: 30.45%

structure: CN1CCN(C(=O)CCc2cc(Br)cs2)CC1
A: 27.19% and 32.71%
B: 26.93%

structure: OC[C@H]1CN(Cc2c(Cl)cccc2Cl)C[C@H]1CN1CCCCC1
A: -7.858% and -14.08%
B: -5.1% and -47.38%

structure: COCC1CCN(S(=O)(=O)N2C[C@@H](C)[C@@](C)(O)C2)CC1
A: 10.05% and 2.919%
B: 3.471% and 10.03%

structure: O=C(CN1CCN(CC2CCOc3ccccc3C2)CC1)N1CCCC1 (centres undefined)
A: -6.319%
B: 10.63% and 4.295%

structure: CNc1ccnc(NCCSc2nccn2C)n1
A: 1.739%
B: -12.65%

structure: CCN1CCCC1CNCc1cc2ccccc2[nH]c1=O (centres undefined)
A: -10.56%
B: -0.07454%

structure: CCN(C)S(=O)(=O)N(Cc1cscn1)c1ccccc1
A: -21.92%
B: 15.65%

Once more, the final 2:

structure	A	B
CCN1CCCC1CNCc1cc2ccccc2[nH]c1=O (centres undefined)	-10.56%	-0.07454%
CCN(C)S(=O)(=O)N(Cc1cscn1)c1ccccc1	-21.92%	15.65%